# Measured data: PubChem BioAssay AID1224830 (NIAID, 2016)
# Test: 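Host factors that control LPS-induced TNF expression in human macrophages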 (primary screen)
# Cell system: human THP-1 monocytic leukaemia cells, TNF dual-luciferase reporter clone, PMA-differentiated to macrophage-like cells
# Knock-down reagent: siRNA pool against human genes, 50 nM
# Timing: LPS for 4 h, given about 3 days after siRNA transfection
# Challenge: bacterial LPS (TLR4 ligand), 10 ng/ml
# Measurement: 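Ratio of firefly to renilla light, scaled to the plate median and expressed as a robust z-score per replicate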
# Reading the numbers: TNF reporter robust z-score: higher = stronger TNF reporter response to LPS
# Hit rule: 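a well is active when its z-score exceeds 2.8 or falls below -1.5; control wells carry no call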
# Shown is one part, drawn at random, of about 18,000 reagents tested. About 2,900 of all reagents (16%) were called active. 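Calls are made per well; low scores hint the gene aids the LPS response, high scores that it dampens it.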 Unmarked entries are inactive. Repeated entries: four replicate wells of each siRNA pool. Reagent sequences are not shown.
gene symbol,TNF reporter robust z-score
SETD4 (SET domain containing 4),0.13
SETD4 (SET domain containing 4),0.71
SETD4 (SET domain containing 4),-0.15
SETD4 (SET domain containing 4),0.15
RREB1 (ras responsive element binding protein 1),-1.4
RREB1 (ras responsive element binding protein 1),-0.95
RREB1 (ras responsive element binding protein 1),-0.55
RREB1 (ras responsive element binding protein 1),-1.78 (active)
XPO4 (exportin 4),1.07
XPO4 (exportin 4),2.09
XPO4 (exportin 4),0.03
XPO4 (exportin 4),-0.05
IL13RA1 (interleukin 13 receptor subunit alpha 1),1
IL13RA1 (interleukin 13 receptor subunit alpha 1),2.4
IL13RA1 (interleukin 13 receptor subunit alpha 1),-0.1
IL13RA1 (interleukin 13 receptor subunit alpha 1),0.19
RNF41 (ring finger protein 41),-1.57 (active)
RNF41 (ring finger protein 41),0.06
RNF41 (ring finger protein 41),1.26
RNF41 (ring finger protein 41),2.37
OR7G3 (olfactory receptor family 7 subfamily G member 3),-0.31
OR7G3 (olfactory receptor family 7 subfamily G member 3),1.34
OR7G3 (olfactory receptor family 7 subfamily G member 3),-0.32
OR7G3 (olfactory receptor family 7 subfamily G member 3),1.03
H3-3B (H3.3 histone B),0.33
H3-3B (H3.3 histone B),1.54
H3-3B (H3.3 histone B),0.39
H3-3B (H3.3 histone B),-0.32
SLC2A14,-1.05
SLC2A14,-0.85
SLC2A14,-0.95
SLC2A14,-0.54
MAP2 (microtubule associated protein 2),-0.67
MAP2 (microtubule associated protein 2),-0.45
MAP2 (microtubule associated protein 2),-0.59
MAP2 (microtubule associated protein 2),-0.6
NPY2R (neuropeptide Y receptor Y2),2.78
NPY2R (neuropeptide Y receptor Y2),0.53
NPY2R (neuropeptide Y receptor Y2),2.75
NPY2R (neuropeptide Y receptor Y2),0.58
PYGB (glycogen phosphorylase B),1.26
PYGB (glycogen phosphorylase B),1.48
PYGB (glycogen phosphorylase B),0.8
PYGB (glycogen phosphorylase B),1.24
RNASE6 (ribonuclease A family member 6),-1.49
RNASE6 (ribonuclease A family member 6),-1.54 (active)
RNASE6 (ribonuclease A family member 6),-0.2
RNASE6 (ribonuclease A family member 6),-0.58
SPRYD4 (SPRY domain containing 4),-0.77
SPRYD4 (SPRY domain containing 4),-1.41
SPRYD4 (SPRY domain containing 4),-0.37
SPRYD4 (SPRY domain containing 4),-0.42
SNHG29 (small nucleolar RNA host gene 29),-0.45
SNHG29 (small nucleolar RNA host gene 29),-0.51
SNHG29 (small nucleolar RNA host gene 29),-0.43
SNHG29 (small nucleolar RNA host gene 29),-0.39
MYG1 (MYG1 exonuclease),-0.41
MYG1 (MYG1 exonuclease),-0.06
MYG1 (MYG1 exonuclease),-0.62
MYG1 (MYG1 exonuclease),-1
SNRPG (small nuclear ribonucleoprotein polypeptide G),0.67
SNRPG (small nuclear ribonucleoprotein polypeptide G),0.71
SNRPG (small nuclear ribonucleoprotein polypeptide G),0.41
SNRPG (small nuclear ribonucleoprotein polypeptide G),0.42
KLHL27 (kelch like family member 27),-0.49
KLHL27 (kelch like family member 27),-0.36
KLHL27 (kelch like family member 27),-1.23
KLHL27 (kelch like family member 27),-1.5
CPEB3 (cytoplasmic polyadenylation element binding protein 3),1.44
CPEB3 (cytoplasmic polyadenylation element binding protein 3),0.42
CPEB3 (cytoplasmic polyadenylation element binding protein 3),-0.19
CPEB3 (cytoplasmic polyadenylation element binding protein 3),3.01 (active)
DRG2 (developmentally regulated GTP binding protein 2),-0.25
DRG2 (developmentally regulated GTP binding protein 2),0.76
DRG2 (developmentally regulated GTP binding protein 2),-0.48
DRG2 (developmentally regulated GTP binding protein 2),0.6
AQR (aquarius intron-binding spliceosomal factor),-0.36
AQR (aquarius intron-binding spliceosomal factor),-0.21
AQR (aquarius intron-binding spliceosomal factor),-0.82
AQR (aquarius intron-binding spliceosomal factor),0.22
SLC22A5,0.29
SLC22A5,0.76
SLC22A5,0.28
SLC22A5,1.45
AP2B1 (adaptor related protein complex 2 subunit beta 1),1
AP2B1 (adaptor related protein complex 2 subunit beta 1),1.33
AP2B1 (adaptor related protein complex 2 subunit beta 1),1.29
AP2B1 (adaptor related protein complex 2 subunit beta 1),1.23
TRUB2 (TruB pseudouridine synthase family member 2),-0.74
TRUB2 (TruB pseudouridine synthase family member 2),1.03
TRUB2 (TruB pseudouridine synthase family member 2),-0.2
TRUB2 (TruB pseudouridine synthase family member 2),0.85
CAND1 (cullin associated and neddylation dissociated 1),-1.25
CAND1 (cullin associated and neddylation dissociated 1),-0.78
CAND1 (cullin associated and neddylation dissociated 1),-1.12
CAND1 (cullin associated and neddylation dissociated 1),-0.34
C1orf122 (chromosome 1 open reading frame 122),0.36
C1orf122 (chromosome 1 open reading frame 122),-0.16
C1orf122 (chromosome 1 open reading frame 122),0.23
C1orf122 (chromosome 1 open reading frame 122),1.26
PUF60 (poly(U) binding splicing factor 60),2.93 (active)
PUF60 (poly(U) binding splicing factor 60),2.72
PUF60 (poly(U) binding splicing factor 60),0.95
PUF60 (poly(U) binding splicing factor 60),2.7
ZNF84 (zinc finger protein 84),0.69
ZNF84 (zinc finger protein 84),0.41
ZNF84 (zinc finger protein 84),1.02
ZNF84 (zinc finger protein 84),1.58
"SEC11C (SEC11 homolog C, signal peptidase complex subunit)",-0.84
"SEC11C (SEC11 homolog C, signal peptidase complex subunit)",-0.59
"SEC11C (SEC11 homolog C, signal peptidase complex subunit)",1.75
"SEC11C (SEC11 homolog C, signal peptidase complex subunit)",-1.36

Copied from above (7 entries):
gene symbol,TNF reporter robust z-score
OR7G3 (olfactory receptor family 7 subfamily G member 3),1.03
H3-3B (H3.3 histone B),0.33
H3-3B (H3.3 histone B),1.54
H3-3B (H3.3 histone B),0.39
H3-3B (H3.3 histone B),-0.32
SLC2A14,-1.05
SLC2A14,-0.85
